No constants are given. Whether binding was seen depends on the method and setting. Binding seen in cells or lysates may run through a third protein. Here binding means that the protein was enriched with, or labelled near, the bait; the list need not be complete.
Target: heat shock protein 70 (Scylla paramamosain (endogenous in mud crab hemocytes)) (UniProt B3VKG9)
Assay: affinity purification with mass spectrometry; mud crab hemocyte lysate, Co-IP with anti-HSP70 IgG or anti-TRAF6 IgG on Protein G-agarose beads, 4°C overnight, eluted with 0.1M glycine, SDS-PAGE and LC-MS/MS

Amino acid sequences for entries named in this document (tags omitted).
UniProt B3VKG9: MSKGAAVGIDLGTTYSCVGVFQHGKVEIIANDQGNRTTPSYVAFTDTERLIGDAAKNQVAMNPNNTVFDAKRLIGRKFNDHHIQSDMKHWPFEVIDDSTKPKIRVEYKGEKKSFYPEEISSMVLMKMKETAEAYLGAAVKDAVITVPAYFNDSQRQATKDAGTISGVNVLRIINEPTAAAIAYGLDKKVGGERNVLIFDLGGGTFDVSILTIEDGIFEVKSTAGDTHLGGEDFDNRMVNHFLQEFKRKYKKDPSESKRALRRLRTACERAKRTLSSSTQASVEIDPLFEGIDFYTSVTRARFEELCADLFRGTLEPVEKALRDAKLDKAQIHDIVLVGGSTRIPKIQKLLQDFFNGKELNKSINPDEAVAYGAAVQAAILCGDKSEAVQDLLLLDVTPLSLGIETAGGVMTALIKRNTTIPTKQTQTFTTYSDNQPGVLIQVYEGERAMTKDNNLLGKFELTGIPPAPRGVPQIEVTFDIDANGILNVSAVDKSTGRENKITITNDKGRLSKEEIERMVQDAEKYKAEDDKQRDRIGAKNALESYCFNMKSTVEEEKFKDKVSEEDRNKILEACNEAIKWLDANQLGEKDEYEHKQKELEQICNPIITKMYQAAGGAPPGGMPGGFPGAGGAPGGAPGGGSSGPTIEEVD
UniProt A0A0F7W424: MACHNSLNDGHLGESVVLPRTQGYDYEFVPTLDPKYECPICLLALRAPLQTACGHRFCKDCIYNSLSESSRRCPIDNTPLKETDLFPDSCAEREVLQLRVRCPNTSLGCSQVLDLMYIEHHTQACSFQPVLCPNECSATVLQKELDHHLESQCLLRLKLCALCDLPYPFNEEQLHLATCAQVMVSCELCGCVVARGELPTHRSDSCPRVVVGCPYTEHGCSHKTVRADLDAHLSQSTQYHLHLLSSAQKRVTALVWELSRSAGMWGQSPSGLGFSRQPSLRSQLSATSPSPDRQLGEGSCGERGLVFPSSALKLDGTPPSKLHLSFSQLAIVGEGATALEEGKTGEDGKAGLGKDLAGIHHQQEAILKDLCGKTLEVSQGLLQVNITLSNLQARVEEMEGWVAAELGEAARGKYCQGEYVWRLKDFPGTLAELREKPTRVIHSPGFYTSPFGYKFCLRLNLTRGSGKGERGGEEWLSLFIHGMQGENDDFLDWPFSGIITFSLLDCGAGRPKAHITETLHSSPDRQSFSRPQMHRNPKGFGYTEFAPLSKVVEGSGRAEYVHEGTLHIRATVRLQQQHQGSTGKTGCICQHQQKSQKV

binding: binds
Substance: TNF receptor associated factor 6 (from UniProt A0A0F7W424 1-598)

Reference: paper PMC8382196
